Construct, isoform or probe ends are uncertain for at least one entry.
Tested on: MBP-OsNLP4 (Oryza sativa L.)
Test: EMSA

## TAATACTGTTGTTTGATACTAATGAGTCAAGTTG (double strand) [OsRFL promoter NRE probe (EMSA/OsRFL-3)]
  binding result: binds
